± gives the standard error. Many entries were measured with a wide error.
B1: glmS ribozyme (parent)
chain: AUAAAAGCGCCAGAACUACAGAAAUGUAGUUGACGAGGAGGAGGUUUAUCGAAUUUUCGGCGGAUGCCUCCAAA

Variants of: B1
Assay: self-cleavage kobs at 10000 uM GlcN6P; higher = faster cleavage; RNA array
Details: with glucosamine-6-phosphate
Summary of the method: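 Tiles of sequenced MiSeq chips were imaged over ~14 h at 37 °C. On them, barcoded ribozyme variants had been transcribed in situ by E. coli RNA polymerase and were tracked via a hybridised Cy3 probe while glucosamine-6-phosphate (40 μM to 10 mM) in HEPES/KCl/Mg(OAc)2 buffer flowed in. Per-tile medians, normalised to baseline and to non-cleaving reference variants, were fit to one- or two-exponential decays for kobs, and weighted Michaelis–Menten fits gave kcat and KM.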

Variant | self-cleavage kobs at 10000 uM GlcN6P [s⁻¹]
AUAAAAGCGCCAGCACUACAGAAAUGUAGUUGACGAGGAGGAGGUUUAUCGAAUUUUCUGCGGAUGCCUCCAAA [A14C G59U] | 1.75e-05 ± 1.3e-05
AUAAAAGCGCCAGCACUACAGAAAUGUAGUAGACGAGGAGGAGGUUUAUCGAAUUUUCGGCGGCUGCCUCCAAA [A14C U31A A64C] | 1.78e-05 ± 1.4e-05
AUAAAAGCGCCAGGACUACAGAAAUGUAGUUGACGAGGGGGAGGUCUAUCGAAUUUUCGGCGGAUGCCUCCAAA [A14G A39G U46C] | 0.00865 ± 0.0059
AUAAAAGCGCCAGGACUACAGAAAUGUAGUUGACGAGGAGGAGGUUUAUCGAAUUUUCGGCGGAUGCCUACAAA [A14G C70A] | 0.00715 ± 0.0058
AUAAAAGCGCCAGGACUACAUAAAUGUAGUUGACGAGGAGGAGGUUUAUCGAAUUUUCGGCGGAUGUCUCCAAA [A14G G21U C67U] | 0.0443 ± 0.028
AUAAAAGCGCCAGGACUACAGAAAUGUAGUUGACGAGUAGGAGGUUUAUGGAAUUUUCGGCGGAUGCCUCCAAA [A14G G38U C50G] | 2e-05 ± 1.9e-05
AUAAAAGCGCCAGUACUACAGAAAUGUAGUUGACGAGGAGGAGGUUUAUCGAUUUUGCGGCGGAUGCCUCCAAA [A14U A53U U57G] | 2.83e-05 ± 2e-05
AUAAAAGCGCCAGUACUACAGAAAUGUAGUUUACGAGGAGGAGGUUUAUCGAAUUUUCGGCGGAUGCCUCGAAA [A14U G32U C71G] | 3.07e-05 ± 1.6e-05
AUAAAAGCGCCAGACAUACAGAAAUGUAGUUGACGAGGAGGAGGUUUAUGGAGUUUUCGGCGGAUGCCUCCAAA [A15C C16A C50G A53G] | 2.41e-05 ± 1.9e-05
AUAAAAGCGCCAGACCUACAGAAAUGUAGUUGACGAGGAGGAGGUUUAUGGAGUUUUCGGCGGAUGCCUCCAAA [A15C C50G A53G] | 4.16e-05 ± 2.1e-05
AUAAAAGCGCCAGACCUACAGAAAUGUAGUUGACGAGGAGGAGGUUUAUCGAACUUUCGGCGGAUGCCUUUAAA [A15C U54C C70U C71U] | 2.61e-05 ± 2e-05
AUAAAAGCGCCAGAUCUACAGAAAUGUAGUUGAUGAGGAGGAGGUUUAUGGAAUUUUCGGCGGAUGCCUCCAAA [A15U C34U C50G] | 2.64e-05 ± 2e-05
AUAAAAGCGCCAGAUCUACAGAAAUGUAGUUGACGAGGAGCAGGUUUAUCGAAUUUUCGGCGGAUGCCUCCAAA [A15U G41C] | 1.44e-05 ± 1.3e-05
AUAAAAGCGCCAGAUCUACAGAAAUGUAGAUGACGAGGAGGAGGUUUAUCGAUUUUUAGGCGGACGCCACGAAA [A15U U30A A53U C58A U65C U69A C71G] | 2.02e-05 ± 1.9e-05
AUAAAAGCGCCAGAAAUACAGAAAUGUAGUUGACGAGGAGGAGGUUAAUCGAAUUUUCGGCGGAUGGCUCCAAA [C16A U47A C67G] | 2.84e-05 ± 2.4e-05
AUAAAAGCGCCAGAAGUACAGAAAUGUAGUUGACGAGGAGGAGGUUUAUCGGAUUUUGGGCGGAUGCCUCCAAA [C16G A52G C58G] | 2.43e-05 ± 2.2e-05
AUAAAAGCGCCAGAAUUACAGAAAUGUAGUUGACGAGGAGGAGGUUUAUCGAAUUUUCGACGGAUGCCUCCAAA [C16U G60A] | 1.29e-05 ± 8.6e-06
AUAAAAGCGCCAGAAUUACAGAAAUGUAGGUGACGAGGAGGAGGUUUAUGGAAUUUUCGGCGGAUGCCUCCAAA [C16U U30G C50G] | 3.13e-05 ± 2.5e-05
AUAAAAGCGCCAGAACUAAAGAAAUGUAGUUGACGAGGAGGAUGUUUAUCGAAUUUUCGGCGGAUGCCUCCAAA [C19A G43U] | 2.32e-05 ± 2.3e-05

Variant | self-cleavage kobs at 10000 uM GlcN6P [s⁻¹]
AUAAAAGCGCCAGAACUACAGAACUGUAGUUGACGAGGAGGAUGUUAAUCGAAUUUUCGGCGGAUGCCUCCAAA [A24C G43U U47A] | 3.96e-05 ± 2.2e-05
AUAAAAGCGCCAGAACUACAGAAAUGUAAUUGACGAGGAGGAGGUUUAUCGUAUUUUCGGCGGAUGCCUUCAAA [G29A A52U C70U] | 5.28e-05 ± 2.8e-05
AUAAAAGCGCCAGAACUACAGAAAUGUAAUUGACGAGGAGGAGGUUUAUCGAGUUUUCGGCGGAUGCGUCCAAA [G29A A53G C68G] | 2.99e-05 ± 1.6e-05
AUAAAAGCGCCAGAACUACAGAAAUGUAAUUGACGAGUAGGAGGUUUAUCGAAUUUUCGGCUGAUGCAUCCAAA [G29A G38U G62U C68A] | 2.21e-05 ± 2.1e-05
AUAAAAGCGCCAGAACUACAGAAAUGUAAUUGACGAGGAGCAGGUUUAUCGAAUUUUCGGCGGAUGCCUCCAAA [G29A G41C] | 2.74e-05 ± 1.4e-05
AUAAAAGCGCCAGAACUACAGAAAUGUACUUGACGAGGCGGAGGUGUAUCGAAUUUUCGGCGGAUGCCUCCAAA [G29C A39C U46G] | 3.44e-05 ± 2.1e-05
AUAAAAGCGCCAGAACUACAGAAAUGUACUUGACGAGGAGGAGGUUUAUCGGAUUUUCGGCGGAUGCCGCCAAA [G29C A52G U69G] | 1.89e-05 ± 1.6e-05
AUAAAAGCGCCAGAACUACAGAAAUGUACUUGACGAGGAGGAGGUUUAUCGAAUUUUCGGCGGAUGCCUACAAA [G29C C70A] | 2.2e-05 ± 1.2e-05
AUAAAAGCGCCAGAACUACAGAAAUGUACCUGACGACGAGGAGGUUUAUCGAAUUUUCGGCGGAUGCCUGCAAA [G29C U30C G37C C70G] | 3.09e-05 ± 1.7e-05
AUAAAAGCGCCAGAACUACAGAAAUGUACUUGACGAGGAGGAGGUGAAUCGAAUUUUCGGCGGAUGCCUGCAAA [G29C U46G U47A C70G] | 2.75e-05 ± 1.5e-05
AUAAAAGCGCCAGAACUACAGAAAUGUAUUUGACGAGGAGGAGCUUUAUCGAAUUUUCGGCGGAUGCCUCCAAA [G29U G44C] | 2.35e-05 ± 1.6e-05
AUAAAAGCGCCAGAACUACAGAAAUGUAUUUGACGAGGAGGAGUUUUAUCGAAUUUUCGGCGGAUGCCUCCAAA [G29U G44U] | 2.12e-05 ± 1.5e-05
AUAAAAGCGCCAGAACUACAGAAAUGUAUUUGACGAGGAGGAGGUUUAUCGAAGUUUUGGCGGAUGCCGCCAAA [G29U U54G C58U U69G] | 2.62e-05 ± 1.8e-05
AUAAAAGCGCCAGAACUACAGAAAUGUAUUUGACGAGGAGGAGGUUUAUCGAAUGUUCUGCGGAUGCCUGCAAA [G29U U55G G59U C70G] | 2.48e-05 ± 2.2e-05
AUAAAAGCGCCAGAACUACAGAAAUGUAGAUGACGAGGAGGAGGUUUAUGGAAUUUUCGGCGGAUGCCUCCAAA [U30A C50G] | 2.04e-05 ± 1.5e-05
AUAAAAGCGCCAGAACUACAGAAAUGUAGAUGACGAGGAGCAGGUUUAUCGAAUUUUCGGCGGAUGCCUCCAAA [U30A G41C] | 3.02e-05 ± 1.8e-05
AUAAAAGCGCCAGAACUACAGAAAUGUAGCUGACGCGGAGGAGGUUUAUCGAAUUUUCGGCGGAUGCCUACAAA [U30C A36C C70A] | 2.55e-05 ± 2.4e-05
AUAAAAGCGCCAGAACUACAGAAAUGUAGCUGACGAGGAGGAGGUUUAUCGAUUUUGCGGCGGCUGCCGCCAAA [U30C A53U U57G A64C U69G] | 2.28e-05 ± 1.8e-05

3 entries from above, with each value named.
AUAAAAGCGCCAGAACUACAGAACUGUAGUUGACGAGGAGGAUGUUAAUCGAAUUUUCGGCGGAUGCCUCCAAA [A24C G43U U47A]
  self-cleavage kobs at 10000 uM GlcN6P [s⁻¹] = 3.96e-05 ± 2.2e-05
AUAAAAGCGCCAGAACUACAGAAAUGUAUUUGACGAGGAGGAGGUUUAUCGAAGUUUUGGCGGAUGCCGCCAAA [G29U U54G C58U U69G]
  self-cleavage kobs at 10000 uM GlcN6P [s⁻¹] = 2.62e-05 ± 1.8e-05
AUAAAAGCGCCAGAACUACAGAAAUGUAGCUGACGAGGAGGAGGUUUAUCGAUUUUGCGGCGGCUGCCGCCAAA [U30C A53U U57G A64C U69G]
  self-cleavage kobs at 10000 uM GlcN6P [s⁻¹] = 2.28e-05 ± 1.8e-05

Source: the supplement of paper PMC7125110
